Results are given in words; binding and its absence hold for the method and conditions named. Some entries that bind do so weakly or less than the wild type.
Experiments:
[1] = biological target: Rous Sarcoma Virus capsid protein (RSV CA), wild type (Rous Sarcoma Virus (strain Prague C)) (UniProt P03322); assay: turbidimetric assay
[2] = biological target: Rous Sarcoma Virus capsid protein (RSV CA), wild type (Rous Sarcoma Virus (strain Prague C)) (UniProt P03322); assay: SEC

B1: Rous Sarcoma Virus capsid protein (RSV CA), wild type (natural protein, Rous Sarcoma Virus (strain Prague C), UniProt P03322 240-476, looked up)
chain: PVVIKTEGPAWTPLEPKLITRLADTVRTKGLRSPITMAEVEALMSSPLLPHDVTNLMRVILGPAPYALWMDAWGVQLQTVIAAATRDPRHPANGQGRGERTNLNRLKGLADGMVGNPQGQAALLRPGELVAITASALQAFREVARLAEPAGPWADIMQGPSESFVDFANRLIKAVEGSDLPPSARAPVIIDCFRQKSQPDIQQLIRTAPSTLTTPGEIIKYVLDRQKTAPLTDQGIA
[1]
  binding: binds weakly
[2]
  binding: no binding (condition: at 4 °C)

Source: paper doi:10.1101/098400 (bioRxiv, 2017)
